PubChem BioAssay AID504467 (National Center for Advancing Translational Sciences (NCATS), 2011)
Screen size: about 330,000 compounds; about 7,700 (2.3%) were called active. Inconclusive means that the source gave no clear call. Such entries were picked first, then a sample of the others. Calls follow the shape of the dose curve; as a rule, active = well fitted inhibition curve with a large enough effect; inconclusive = small, poorly fitted or top-dose-only effect, or effect the other way; inactive = flat fitted curve, though single readings scatter. Where the call is inconclusive, the potency comes from a doubtful curve fit.

Test: qHTS screen for small molecules that inhibit ELG1-dependent DNA repair in human embryonic kidney (HEK293T) cells expressing luciferase-tagged ELG1; also: nearly all actives have a fitted effect of over 55% in size
Conditions: HEK293T ELG1-luciferase reporter, luminescence, 16 h, DNA damage induced by 5-fluorouridine; activity change, negative = inhibition: at 46.1 µM (top of the series)
In short: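 5-Fluorouridine DNA damage + compound/DMSO, 2,000 cells/well, 16 h, 37 °C/5% CO2. ONE-Glo, 30 min RT, luminescence. Readout = decrease in reporter signal.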
% is scaled to controls: 0 for no effect and ±100 for the full control effect; potency is read from the fitted curve at half-maximal effect.

SMILES	Potency	activity change, negative = inhibition
COc1ccc(O)c(CN2CCN(C/C=C/c3ccccc3)CC2)c1	inconclusive: 13 µM [inhibitor, partial curve, poor fit]	
CN(C)S(=O)(=O)c1ccc(C(=O)N2CCN(S(=O)(=O)c3cccs3)CC2)cc1	inconclusive: 29.1 µM [inhibitor, single point]	
C[C@H]1C(=O)N(C)CCN1C(=O)c1cccc(OC2CCN(CC(C)(C)C)CC2)c1	inconclusive: 16.4 µM [activator, single point]	
O=C(Nc1ccc(Cl)cc1)OCc1cn(-c2ccc(Cl)cc2)nn1	inconclusive: 10.3 µM [activator, partial curve, poor fit]	
COc1cc(C2C(C#N)=C(C)NC3=C2C(=O)CC(C)(C)C3)ccc1O (stereo not drawn)	inconclusive: 23.1 µM [inhibitor, single point]	
O=S(=O)(c1ccc(Cl)cc1)N1CCC2(CC1)OCCN2S(=O)(=O)c1cccs1	inconclusive: 23.1 µM [inhibitor, partial curve, poor fit]	
CCn1c(SCC(=O)OC)nnc1-c1ccc(C)cc1	inconclusive: 0.651 µM [activator, single point]	
CC(C)c1cc(C(N)=O)c(NC(=O)c2cccc(COc3ccc(Cl)cc3)c2)s1	inconclusive: 0.411 µM [activator, full curve]	
O=C(c1ccccc1Oc1ccccc1)N1CCN(c2ccccc2)CC1	inconclusive: 23.1 µM [inhibitor, single point]	
CCOn1c(=O)c(-c2ccc(F)cc2)[n+]([O-])c2ccccc21	inconclusive: 32.6 µM [activator, partial curve, poor fit]	
COc1cccc(Cn2c(NCc3ccco3)nc3c2c(=O)n(C)c(=O)n3C)c1	inconclusive: 11.6 µM [inhibitor, partial curve]	
O=C(NC1CCC(O)CC1)c1ccc(-c2ccc(Cl)cc2)o1 (stereo not drawn)	inconclusive: 4.61 µM [activator, partial curve]	
Cc1ccc(N2C(=O)c3ccc(C(=O)O)cc3C2=O)cc1C	inconclusive: 23.1 µM [activator, single point]	
Cc1ccccc1-n1c(=O)/c(=C\c2ccco2)s/c1=C(/C#N)C(=O)Nc1ccccc1	active: 4.61 µM	
CCC1CCc2sc(C(=O)NCC(c3ccc(OC)cc3)N3CCOCC3)cc2C1 (stereo not drawn)	inconclusive: 29.1 µM [inhibitor, single point]	
CCOC(=O)c1c(NC(=O)CSc2nnc(-c3ccccc3C)n2C)sc(C(C)=O)c1C	inconclusive: 23.1 µM [inhibitor, partial curve]	
O=C(Nc1ccccc1)Nc1ccc(Br)cc1F	inconclusive: 5.8 µM [activator, partial curve]	
CN(Cc1nc(C(c2ccccc2)c2ccccc2)no1)CC1COCCO1 (stereo not drawn)	inconclusive: 20.6 µM [activator, partial curve]	
COc1cc(C(=S)N2CCCC2)ccc1OCC(N)=O	inconclusive: 1.12 µM [inhibitor, single point]	
Cc1ccc(S(=O)(=O)Nc2ccccc2C(=O)OC(C)C(=O)Nc2ccc3ccccc3c2)cc1[N+](=O)[O-] (stereo not drawn)	inconclusive: 14.6 µM [inhibitor, partial curve]	
Cc1cc(C)nc(Oc2ccc([N+](=O)[O-])cc2)n1	inconclusive: 20.6 µM [activator, partial curve, poor fit]	
CN1CCN(C(=O)CCN2C(=O)c3ccccc3C2=O)CC1		inactive: 16%
c1ccc(C2=NN(c3ccccc3)CC2)cc1	inconclusive: 20.6 µM [activator, partial curve]	

Molecules from the list above that contain four or more nitrogen atoms, in the order listed:
SMILES	Potency	activity change, negative = inhibition
O=C(Nc1ccc(Cl)cc1)OCc1cn(-c2ccc(Cl)cc2)nn1	inconclusive: 10.3 µM [activator, partial curve, poor fit]	
COc1cccc(Cn2c(NCc3ccco3)nc3c2c(=O)n(C)c(=O)n3C)c1	inconclusive: 11.6 µM [inhibitor, partial curve]	
CCOC(=O)c1c(NC(=O)CSc2nnc(-c3ccccc3C)n2C)sc(C(C)=O)c1C	inconclusive: 23.1 µM [inhibitor, partial curve]	

(listing goes on)

SMILES	Potency	activity change, negative = inhibition
C=CCSc1nc(N(CC)CC)c2sccc2n1		inactive: -23.7%
CN(Cc1ccccc1)c1nc2c(c(=O)[nH]c(=O)n2C)n1Cc1ccccc1Cl	inconclusive: 29.1 µM [inhibitor, single point]	
CCOc1ccc(NC(=O)CN(C)S(=O)(=O)c2cccs2)cc1	inconclusive: 18.4 µM [activator, single point]	
O=C(c1ccc(Cn2c(=S)[nH]c3ccccc3c2=O)cc1)N1CCN(c2ccccn2)CC1	active: 10.3 µM	
CCc1cc2ccccc2nc1SCC(=O)N1CCN(C(=O)c2ccco2)CC1		inactive: -23.7%
O=C(N/N=C/c1cccs1)c1ccc2nc[nH]c2c1	inconclusive: 20.6 µM [activator, single point]	
Cc1cc(Nc2ccccc2)nc2cc(O)ccc12	inconclusive: 18.4 µM [activator, single point]	
Cc1ccc(NC(=O)COC(=O)c2ccc(NC(=O)CC#N)cc2)cc1S(=O)(=O)N1CCOCC1		inactive: -27%
CC(C)(C)c1ccc(-n2ncc3c2CCCC3NC(=O)c2cnccn2)cc1 (stereo not drawn)	inconclusive: 3.66 µM [inhibitor, single point]	
CCOc1ccc(-c2ccc(SCC(=O)Nc3nnc(CC)s3)nn2)cc1	inconclusive: 5.17 µM [activator, partial curve]	
CC(=O)N1CCN(C(=S)NC(=O)c2ccc(F)cc2)CC1		inactive: 7.77%
COC(=O)c1ccc(COC(=O)C2CCN(S(=O)(=O)c3ccc(C)c(C)c3)CC2)o1		inactive: 5.47%
COc1ccc(C(=O)Nn2c(C)nc3ccccc3c2=O)cc1Br	inconclusive: 20.6 µM [inhibitor, single point]	
COc1ccc(N2CCN(C(=O)CSc3nc4nc(C)cc(C)n4n3)CC2)cc1		inactive: 0.457%
COc1ccc(C(=O)Nc2ccc3ccccc3c2)c(OC)c1	inconclusive: 1.83 µM [activator, partial curve]	
Cc1cc(C)c2nc(N3CCC(C(=O)NCc4ccccn4)CC3)sc2c1	inconclusive: 6.51 µM [activator, full curve]	
Cc1ccc(C)c(N(C(=O)Cn2nnc3ccccc32)C(C(=O)NCc2ccco2)c2ccncc2)c1 (stereo not drawn)		inactive: 0.528%
C[C@H](CO)N1C[C@H](C)[C@@H](CN(C)C)Oc2c(NC(=O)c3ccncc3)cccc2C1=O	inconclusive: 23.1 µM [activator, single point]	
N#Cc1cccc(S(=O)(=O)N2CCN(c3ccnc4cc(Cl)ccc34)CC2)c1	inconclusive: 23.1 µM [inhibitor, single point]	
CC(=O)Nc1ccc(S(=O)(=O)Nc2cccc3[nH]ncc23)cc1	inconclusive: 25.9 µM [inhibitor, single point]	
CCN(CC)c1ncnc2sc3c(c12)CCC3	active: 14.6 µM	
CCCn1c2ccccc2c2nnc(SC(CC)C(=O)Nc3cc(C)on3)nc21 (stereo not drawn)	active: 23.1 µM	
O=C(CN1CCOCC1)Nc1nc2ccc(F)cc2s1	inconclusive: 20.6 µM [activator, single point]	

SMILES	Potency	activity change, negative = inhibition
Cc1cccc(NC(=S)N/N=C/c2cccc(O)c2)c1C	active: 18.3 µM	
Cc1ccc2cc(-c3noc(C(C)(C)C)n3)c(=O)[nH]c2c1		inactive: 28.8%
C=CCNC(=O)c1cc2nc(C3CC3)cc(C(F)F)n2n1	inconclusive: 18.4 µM [activator, partial curve]	
COc1ccccc1CNC(=O)CSc1ccsc1[N+](=O)[O-]	inconclusive: 3.26 µM [activator, full curve]	
Cc1ccc(S(=O)(=O)CC(=O)c2ccccc2)cc1		inactive: 12.6%
O=C(COc1ccc2c(-c3ccccc3)cc(=O)oc2c1)N[C@H](Cc1c[nH]c2ccccc12)C(=O)O		inactive: 14.6%
O=C(CN1CCN(c2cccc(Cl)c2)CC1)NC1CCCc2ccccc21 (stereo not drawn)		inactive: -23.6%
N/C(Cc1ccc(Cl)cc1Cl)=N\OC(=O)Cc1cccs1	inconclusive: 29.1 µM [activator, single point]	
COc1ccc(NC(=O)CCN2CCN(c3ccc(F)cc3)CC2)cc1		inactive: -3.68%
C#CCOCCOCCOCCNc1nc(N2CCN(C(=O)[C@H](CCCN=C(N)N)n3cc(C(N)[C@@H](C)CC)nn3)CC2)nc(N2CCN(C(=O)[C@H](CC(N)=O)n3cc([C@@H](N)C(C)C)nn3)CC2)n1 (stereo partly drawn)	inconclusive: 10.3 µM [activator, partial curve]	
COc1cc(/C=C/C(=O)O)cc(S(=O)(=O)Nc2ccc3nc(SC)sc3c2)c1OC		inactive: 11.2%
Fc1ccc(Nc2nc(-c3cccnc3)cs2)cc1	inconclusive: 6.51 µM [activator, partial curve]	
CC(C)CCn1nc(C(=O)Nc2nc3c(s2)CCCC3)c2ccccc2c1=O	inconclusive: 13 µM [inhibitor, partial curve]	
Cc1ccc(N(CC(=O)Nc2cccc(N(C)S(C)(=O)=O)c2)S(C)(=O)=O)cc1	active: 6.51 µM	
O=[N+]([O-])c1cccc(/C=C/c2nc(C=Nc3ccccc3)c(O)o2)c1	inconclusive: 16.4 µM [activator, single point]	
CC(C)Oc1ccc(C(CC(=O)O)c2ccc(F)cc2)cc1 (stereo not drawn)		inactive: 22.7%
S=C(NCc1ccncc1)Nc1cccc(Cl)c1		inactive: 1.93%
Cc1ccc(NC(=O)c2cccc(OCc3c(C)noc3C)c2)cc1S(=O)(=O)Nc1ccccc1Cl	inconclusive: 16.4 µM [inhibitor, single point]	
CC1(C)CC(=O)c2c(O)cc(OCc3ccc([N+](=O)[O-])cc3)cc2O1	inconclusive: 18.4 µM [activator, single point]	
C=C(C)CSc1nnc2n(N)c(=O)c3ccccc3n12	inconclusive: 20.6 µM [activator, partial curve]	
O=C(CN1CCCCC1)Nc1cccc(Oc2ccccc2)c1	inconclusive: 23.1 µM [activator, single point]	
CCOc1ccc(NC(=O)CN2C(=O)COc3ccccc32)cc1		inactive: 21.2%
